# According to the supplement of paper PMC9744312:
# Where a name gives a salt, the structure may show the parent alone. This is one part of the list. Single values of this set are uncertain.
# Test system: Peyronie's disease tunica albuginea primary fibroblasts
# Experiment: inhibition of TGF-beta1-induced alpha-SMA expression (myofibroblast transformation), relative to TGF-beta1-only and untreated controls; higher = stronger inhibition of myofibroblast transformation
# Settings: 10 µM; TGF-beta1 10 ng/mL; 72 h
row,Structure (SMILES),inhibition of TGF-beta1-induced alpha-SMA expression [%]
1,CN(C)CCN1C(=O)c2cccc3cc(N)cc(c23)C1=O [Amonafide],24.3
2,O[C@@H]1CO[C@H]2[C@@H]1OC[C@@H]2O [Isosorbide],-56.1
3,CC1=C(C(=O)OCCN(Cc2ccccc2)c2ccccc2)C(c2cccc([N+](=O)[O-])c2)C(P2(=O)OCC(C)(C)CO2)=C(C)N1 (stereo not drawn) [Efonidipine],21.7
4,CCCNS(=O)(=O)Nc1ncnc(OCCOc2ncc(Br)cn2)c1-c1ccc(Br)cc1 [Macitentan],-17.7
5,CCOc1nc2cccc(C(=O)OC(C)OC(=O)OC3CCCCC3)c2n1Cc1ccc(-c2ccccc2-c2nn[nH]n2)cc1 (stereo not drawn) [Candesartan Cilexetil],16.3
6,Nc1ccc(S(N)(=O)=O)cc1 [Sulfanilamide],21.8
7,CCN1CCC[C@H]1CNC(=O)c1cc(S(N)(=O)=O)ccc1OC [Levosulpiride],16.4
8,NCCNc1ccc(NCCN)c2c1C(=O)c1ccncc1C2=O [Pixantrone Maleate],92.3
9,O=c1[nH]c(=O)n([C@H]2C[C@H](O)[C@@H](CO)O2)cc1/C=C/Br [Brivudine],16.2
10,CCC(C)(C)c1ccc(CC(C)CN2C[C@@H](C)O[C@@H](C)C2)cc1 (stereo partly drawn) [Amorolfine HCl],13.7
11,CCOC(=O)c1ccc(C#Cc2ccc3c(c2)C(C)(C)CCS3)nc1 [Tazarotene],8.3
12,"CC(C)(C)C#Cc1cc(N(C(=O)[C@H]2CC[C@H](C)CC2)[C@H]2CC[C@H](O)CC2)c(C(=O)O)s1 [Lomibuvir (VX-222, VCH-222)]",10.3
13,CC[C@]12CCCN3CCc4c(n(c5ccccc45)[C@@](O)(C(=O)OC)C1)[C@@H]32 [Vincamine],26.5
14,S=c1nc[nH]c2nc[nH]c12 [6-Mercaptopurine (6-MP) Monohydrate],10.2
15,CCCCCCCCCCCCCCCC[N+](C)(C)C [Cetrimonium Bromide (CTAB)],> 100
16,O=C(O)CCc1nc2ccccc2[nH]1 [Procodazole],12
17,CCCc1nc(C(C)(C)O)c(C(=O)OCc2oc(=O)oc2C)n1Cc1ccc(-c2ccccc2-c2nnn[nH]2)cc1 [Olmesartan Medoxomil],-17.9
18,Cn1c(=O)c2c(ncn2CC(O)CO)n(C)c1=O (stereo not drawn) [Dyphylline],-6.45
19,Nc1nccs1 [Aminothiazole],14.9
20,CC(C)C[C@H](N)C(=O)O [L-Leucine],0.755
21,NC(=O)c1cccnc1 [Nicotinamide (Vitamin B3)],10.5
22,CC(C)(Oc1ccc(C2CC2(Cl)Cl)cc1)C(=O)O (stereo not drawn) [Ciprofibrate],18.7
23,NC(=O)[C@@H](CCC(F)(F)F)N(Cc1ccc(-c2ncon2)cc1F)S(=O)(=O)c1ccc(Cl)cc1,55

# Sorted by length of the SMILES (rising): some entries from above.
row,Structure (SMILES),inhibition of TGF-beta1-induced alpha-SMA expression [%]
20,CC(C)C[C@H](N)C(=O)O [L-Leucine],0.755
6,Nc1ccc(S(N)(=O)=O)cc1 [Sulfanilamide],21.8
15,CCCCCCCCCCCCCCCC[N+](C)(C)C [Cetrimonium Bromide (CTAB)],> 100
